This is one part of the list.
Tests used:
Assay in all cases: log2 fold change, soluble protein after heating vs DMSO (PISA); higher = thermal stabilisation; K562 cells, 10 uM, 30 min; active = over 0.2 and 3.5 SD of the protein, either way, in both replicates (recomputed)
[1] = compound: CC[C@@H]1C(=O)N(C)c2cnc(Nc3ccc(C(=O)NC4CCN(C)CC4)cc3OC)nc2N1C1CCCC1
Method in brief: (§1)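 K562 cells (2×10^6 cells/mL) were treated with 10 μM compound for 30 min, and aliquots were heated for 3 min over 48°C-58°C. Pooled aliquots were extracted in PBS with 0.5% NP-40 at 4°C, and the supernatant after 21,000xg for 90 min was measured by TMTpro 16plex LC-MS/MS with channel sums equalised. Reported thermal stability, relative to control samples and from duplicates, is a log2 fold change.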

By UniProt entry, the sequences of proteins in these tests, tags left out. Where a name states a change or a piece, a line headed by the entry shows the natural chain unless it says otherwise.
UniProt Q9NQ29: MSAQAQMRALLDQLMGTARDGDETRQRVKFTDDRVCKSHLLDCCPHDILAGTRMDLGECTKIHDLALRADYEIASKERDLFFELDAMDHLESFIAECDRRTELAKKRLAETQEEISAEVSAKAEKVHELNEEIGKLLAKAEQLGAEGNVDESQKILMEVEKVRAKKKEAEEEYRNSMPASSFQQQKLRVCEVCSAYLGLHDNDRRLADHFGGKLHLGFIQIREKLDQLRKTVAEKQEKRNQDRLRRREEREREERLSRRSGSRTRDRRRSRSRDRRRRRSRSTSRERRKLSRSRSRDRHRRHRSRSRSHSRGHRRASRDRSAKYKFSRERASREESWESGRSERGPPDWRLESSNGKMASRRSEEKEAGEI
UniProt Q9Y4Y9: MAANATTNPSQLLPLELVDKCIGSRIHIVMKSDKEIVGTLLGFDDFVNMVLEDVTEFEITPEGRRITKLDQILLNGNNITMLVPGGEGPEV
UniProt P29966: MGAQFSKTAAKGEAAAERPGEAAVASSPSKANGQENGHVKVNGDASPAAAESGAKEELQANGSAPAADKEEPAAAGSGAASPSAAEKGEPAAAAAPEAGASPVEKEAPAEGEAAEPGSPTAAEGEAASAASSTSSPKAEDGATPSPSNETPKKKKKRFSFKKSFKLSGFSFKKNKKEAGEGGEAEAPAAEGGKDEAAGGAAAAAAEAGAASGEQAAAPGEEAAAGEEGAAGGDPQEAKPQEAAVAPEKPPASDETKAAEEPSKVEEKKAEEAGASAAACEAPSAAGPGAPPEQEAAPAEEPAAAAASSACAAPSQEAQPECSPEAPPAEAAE
UniProt Q96LZ2: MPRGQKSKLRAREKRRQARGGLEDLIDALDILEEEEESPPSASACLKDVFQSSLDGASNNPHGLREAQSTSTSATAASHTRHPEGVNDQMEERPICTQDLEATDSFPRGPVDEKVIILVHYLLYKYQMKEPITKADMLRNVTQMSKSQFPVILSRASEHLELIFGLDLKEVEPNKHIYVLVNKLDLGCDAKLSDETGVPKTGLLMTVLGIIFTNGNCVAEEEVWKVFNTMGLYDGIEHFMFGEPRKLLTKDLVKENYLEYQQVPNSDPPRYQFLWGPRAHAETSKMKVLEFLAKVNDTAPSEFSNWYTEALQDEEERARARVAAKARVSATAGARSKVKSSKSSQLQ
UniProt Q9C099: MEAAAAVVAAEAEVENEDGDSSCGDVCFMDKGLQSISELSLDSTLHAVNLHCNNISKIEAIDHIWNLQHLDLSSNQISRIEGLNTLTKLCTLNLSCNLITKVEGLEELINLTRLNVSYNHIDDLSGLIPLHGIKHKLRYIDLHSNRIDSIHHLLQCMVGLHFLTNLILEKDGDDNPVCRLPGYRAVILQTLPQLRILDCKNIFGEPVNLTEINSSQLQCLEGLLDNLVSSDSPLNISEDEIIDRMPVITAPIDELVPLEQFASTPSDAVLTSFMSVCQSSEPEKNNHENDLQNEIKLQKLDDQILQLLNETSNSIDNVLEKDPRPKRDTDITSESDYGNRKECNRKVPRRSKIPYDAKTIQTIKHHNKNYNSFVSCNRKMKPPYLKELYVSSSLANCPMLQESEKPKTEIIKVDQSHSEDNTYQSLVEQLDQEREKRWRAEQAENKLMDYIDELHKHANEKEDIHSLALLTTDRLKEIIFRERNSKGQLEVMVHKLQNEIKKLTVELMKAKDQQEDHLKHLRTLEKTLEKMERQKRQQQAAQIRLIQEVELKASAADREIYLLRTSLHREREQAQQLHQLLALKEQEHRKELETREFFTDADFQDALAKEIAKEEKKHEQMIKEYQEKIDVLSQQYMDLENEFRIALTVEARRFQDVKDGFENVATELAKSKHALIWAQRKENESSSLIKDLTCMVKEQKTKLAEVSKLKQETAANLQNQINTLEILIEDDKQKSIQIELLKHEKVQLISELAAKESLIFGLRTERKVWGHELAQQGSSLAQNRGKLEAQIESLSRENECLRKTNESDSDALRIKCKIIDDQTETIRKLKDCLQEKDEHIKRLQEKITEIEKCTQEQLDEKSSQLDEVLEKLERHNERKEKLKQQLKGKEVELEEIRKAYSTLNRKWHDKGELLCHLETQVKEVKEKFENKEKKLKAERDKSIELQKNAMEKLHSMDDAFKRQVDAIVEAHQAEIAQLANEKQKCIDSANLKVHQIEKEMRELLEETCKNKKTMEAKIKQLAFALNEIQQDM
UniProt Q969L4: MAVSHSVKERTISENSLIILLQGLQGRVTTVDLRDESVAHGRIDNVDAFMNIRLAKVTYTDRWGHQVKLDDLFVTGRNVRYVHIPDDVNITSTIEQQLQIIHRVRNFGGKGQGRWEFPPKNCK
UniProt Q14766: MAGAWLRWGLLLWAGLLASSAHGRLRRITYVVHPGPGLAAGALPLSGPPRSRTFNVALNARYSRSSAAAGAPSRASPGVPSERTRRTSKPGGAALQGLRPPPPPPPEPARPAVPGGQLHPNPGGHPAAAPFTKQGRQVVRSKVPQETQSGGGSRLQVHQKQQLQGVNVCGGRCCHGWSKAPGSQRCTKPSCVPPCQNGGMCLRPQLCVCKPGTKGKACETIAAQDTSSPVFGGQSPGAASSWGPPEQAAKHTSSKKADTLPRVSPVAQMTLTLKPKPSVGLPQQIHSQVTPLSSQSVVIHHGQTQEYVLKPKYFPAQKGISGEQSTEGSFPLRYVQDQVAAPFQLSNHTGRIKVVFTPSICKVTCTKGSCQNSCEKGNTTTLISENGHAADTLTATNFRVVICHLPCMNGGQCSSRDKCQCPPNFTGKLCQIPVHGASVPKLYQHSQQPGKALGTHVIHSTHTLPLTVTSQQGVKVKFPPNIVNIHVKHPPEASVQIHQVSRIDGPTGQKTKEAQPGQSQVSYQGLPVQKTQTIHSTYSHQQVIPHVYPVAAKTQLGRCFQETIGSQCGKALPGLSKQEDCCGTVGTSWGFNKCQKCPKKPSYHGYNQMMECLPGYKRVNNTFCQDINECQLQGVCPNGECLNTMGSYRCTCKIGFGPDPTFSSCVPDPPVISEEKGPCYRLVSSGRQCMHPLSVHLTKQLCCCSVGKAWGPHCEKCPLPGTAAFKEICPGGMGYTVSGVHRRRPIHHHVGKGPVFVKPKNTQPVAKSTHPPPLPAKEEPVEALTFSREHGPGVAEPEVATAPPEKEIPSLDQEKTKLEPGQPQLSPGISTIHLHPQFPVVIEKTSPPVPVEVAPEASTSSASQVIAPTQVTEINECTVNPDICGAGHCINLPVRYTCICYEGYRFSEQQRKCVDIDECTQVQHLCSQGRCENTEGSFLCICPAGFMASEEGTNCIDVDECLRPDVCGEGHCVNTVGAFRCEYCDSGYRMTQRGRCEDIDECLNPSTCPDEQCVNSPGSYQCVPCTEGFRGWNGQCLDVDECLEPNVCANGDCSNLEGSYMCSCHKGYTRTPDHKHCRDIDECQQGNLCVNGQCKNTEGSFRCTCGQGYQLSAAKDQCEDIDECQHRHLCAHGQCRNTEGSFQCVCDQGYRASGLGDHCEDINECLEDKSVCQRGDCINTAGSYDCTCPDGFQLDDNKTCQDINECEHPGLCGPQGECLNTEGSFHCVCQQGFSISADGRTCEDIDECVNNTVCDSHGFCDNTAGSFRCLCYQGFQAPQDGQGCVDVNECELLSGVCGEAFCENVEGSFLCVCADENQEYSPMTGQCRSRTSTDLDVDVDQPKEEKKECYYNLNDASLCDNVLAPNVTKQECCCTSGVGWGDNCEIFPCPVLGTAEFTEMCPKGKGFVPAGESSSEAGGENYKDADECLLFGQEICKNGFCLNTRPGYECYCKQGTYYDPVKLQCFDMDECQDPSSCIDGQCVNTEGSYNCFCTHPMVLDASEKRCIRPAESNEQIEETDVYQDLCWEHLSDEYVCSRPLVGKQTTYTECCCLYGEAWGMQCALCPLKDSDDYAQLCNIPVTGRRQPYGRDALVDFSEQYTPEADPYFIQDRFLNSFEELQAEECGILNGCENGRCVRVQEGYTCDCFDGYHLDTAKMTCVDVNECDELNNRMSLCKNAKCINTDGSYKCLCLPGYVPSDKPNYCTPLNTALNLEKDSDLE
UniProt P10636, whole entry, looked up: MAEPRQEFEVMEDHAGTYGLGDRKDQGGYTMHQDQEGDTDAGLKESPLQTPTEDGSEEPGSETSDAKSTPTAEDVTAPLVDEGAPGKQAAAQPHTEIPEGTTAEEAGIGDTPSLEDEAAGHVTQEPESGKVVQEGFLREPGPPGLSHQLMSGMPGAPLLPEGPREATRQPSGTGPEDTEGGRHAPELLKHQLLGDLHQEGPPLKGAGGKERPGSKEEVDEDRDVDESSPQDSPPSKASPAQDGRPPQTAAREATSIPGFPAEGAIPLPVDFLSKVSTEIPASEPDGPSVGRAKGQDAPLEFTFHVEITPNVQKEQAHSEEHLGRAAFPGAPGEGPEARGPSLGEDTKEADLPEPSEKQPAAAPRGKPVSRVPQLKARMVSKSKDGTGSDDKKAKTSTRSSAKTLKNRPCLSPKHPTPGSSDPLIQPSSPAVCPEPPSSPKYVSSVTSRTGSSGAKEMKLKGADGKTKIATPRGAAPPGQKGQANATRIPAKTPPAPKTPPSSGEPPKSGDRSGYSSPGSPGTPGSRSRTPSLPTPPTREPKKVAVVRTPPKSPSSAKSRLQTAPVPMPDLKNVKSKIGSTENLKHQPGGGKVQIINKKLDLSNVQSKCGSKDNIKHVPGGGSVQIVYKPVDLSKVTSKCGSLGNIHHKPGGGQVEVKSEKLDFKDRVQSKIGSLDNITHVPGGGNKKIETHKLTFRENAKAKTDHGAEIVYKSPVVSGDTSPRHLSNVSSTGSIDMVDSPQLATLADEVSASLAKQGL
UniProt Q02779: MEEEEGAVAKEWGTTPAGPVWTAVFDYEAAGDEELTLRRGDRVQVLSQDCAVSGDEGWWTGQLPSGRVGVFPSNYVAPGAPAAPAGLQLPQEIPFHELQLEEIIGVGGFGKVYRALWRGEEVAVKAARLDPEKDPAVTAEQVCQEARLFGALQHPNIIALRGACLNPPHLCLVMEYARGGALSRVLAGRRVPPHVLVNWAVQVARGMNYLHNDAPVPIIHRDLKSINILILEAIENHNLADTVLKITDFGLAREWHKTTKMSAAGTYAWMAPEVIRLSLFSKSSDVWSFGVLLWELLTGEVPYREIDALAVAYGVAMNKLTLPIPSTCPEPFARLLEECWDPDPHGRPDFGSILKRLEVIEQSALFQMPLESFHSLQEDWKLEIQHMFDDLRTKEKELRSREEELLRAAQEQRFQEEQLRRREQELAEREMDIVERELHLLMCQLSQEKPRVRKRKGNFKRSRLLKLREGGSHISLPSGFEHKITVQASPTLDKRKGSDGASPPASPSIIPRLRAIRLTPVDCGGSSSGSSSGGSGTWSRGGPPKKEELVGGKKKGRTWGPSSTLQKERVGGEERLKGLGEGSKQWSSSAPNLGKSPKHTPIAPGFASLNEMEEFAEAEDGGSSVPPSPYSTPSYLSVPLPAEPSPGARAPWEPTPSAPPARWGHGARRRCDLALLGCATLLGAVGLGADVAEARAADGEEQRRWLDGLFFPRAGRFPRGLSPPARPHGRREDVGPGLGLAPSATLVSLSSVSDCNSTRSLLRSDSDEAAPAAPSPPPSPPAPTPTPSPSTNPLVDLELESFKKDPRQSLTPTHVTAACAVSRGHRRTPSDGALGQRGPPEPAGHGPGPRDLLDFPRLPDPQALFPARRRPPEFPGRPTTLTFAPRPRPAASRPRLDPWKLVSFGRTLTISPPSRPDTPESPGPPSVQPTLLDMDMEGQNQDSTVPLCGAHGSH
UniProt Q6P9F7: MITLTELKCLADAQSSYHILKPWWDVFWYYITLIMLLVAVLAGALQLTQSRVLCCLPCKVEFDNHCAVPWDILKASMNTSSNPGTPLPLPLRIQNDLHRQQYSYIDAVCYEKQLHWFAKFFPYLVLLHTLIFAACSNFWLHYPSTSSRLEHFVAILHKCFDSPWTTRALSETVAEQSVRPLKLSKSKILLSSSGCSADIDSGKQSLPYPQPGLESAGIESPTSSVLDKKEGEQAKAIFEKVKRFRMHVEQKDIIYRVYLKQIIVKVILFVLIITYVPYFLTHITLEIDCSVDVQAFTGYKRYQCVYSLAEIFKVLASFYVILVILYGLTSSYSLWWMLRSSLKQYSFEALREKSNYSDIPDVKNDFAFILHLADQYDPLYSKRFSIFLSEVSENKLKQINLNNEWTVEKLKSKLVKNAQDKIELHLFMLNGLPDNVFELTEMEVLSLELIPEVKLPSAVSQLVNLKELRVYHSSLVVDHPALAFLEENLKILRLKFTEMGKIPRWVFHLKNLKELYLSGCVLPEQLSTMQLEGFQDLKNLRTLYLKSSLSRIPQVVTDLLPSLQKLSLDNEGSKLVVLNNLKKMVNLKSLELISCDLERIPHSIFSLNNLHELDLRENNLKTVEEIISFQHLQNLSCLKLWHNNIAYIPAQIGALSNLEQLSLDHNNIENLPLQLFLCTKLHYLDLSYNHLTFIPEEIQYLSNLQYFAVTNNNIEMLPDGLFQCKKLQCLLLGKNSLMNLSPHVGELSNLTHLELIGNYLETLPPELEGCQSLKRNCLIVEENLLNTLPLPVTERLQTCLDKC

volasertib = compound: CC[C@@H]1C(=O)N(C)c2cnc(Nc3ccc(C(=O)N[C@H]4CC[C@H](N5CCN(CC6CC6)CC5)CC4)cc3OC)nc2N1C(C)C [volasertib]
Method in brief: as §1

[2] = compound: CC[C@H](C)N1C=C(C2=C(C=C(C=C21)C3=CN=C(C=C3)N4CCNCC4)C(=O)NCC5=C(C=C(NC5=O)C)C)C
Method in brief: as §1

epoxomicin = compound: CC[C@H](C)[C@@H](C(=O)N[C@@H]([C@@H](C)O)C(=O)N[C@@H](CC(C)C)C(=O)[C@]1(CO1)C)NC(=O)[C@H]([C@@H](C)CC)N(C)C(=O)C [epoxomicin]
Method in brief: as §1

[3] = compound: CN(C)CC(=O)Nc1ccc2[nH]c(=O)c3ccccc3c2c1
Method in brief: as §1

[4] = compound: CN1C2=C(C3=C1C(=O)N(N=C3)CC4=CC(=CC=C4)N)SC(=C2)S(=O)C
Method in brief: as §1

[5] = compound: CCn1cc(-c2ccnc3[nH]c(-c4cccc(CN(C)C)c4)cc23)c(-c2ccc(NC(=O)N(C)C)cc2)n1
Method in brief: as §1

[6] = compound: CN1CCC(CNc2ccc3ncc(-c4cccc(OC(F)(F)F)c4)n3n2)CC1
Method in brief: as §1

[7] = compound: CCn1c(C(=O)N(C2CC2)C2CC2)cc2c3c(ncn3C)c(Nc3cc(C)n(C)n3)nc21
Method in brief: as §1

rosiglitazone = compound: CN(CCOC1=CC=C(C=C1)C[C@H]2C(=O)NC(=O)S2)C3=CC=CC=N3 (racemic) [rosiglitazone]
Method in brief: as §1

Measured: log2 fold change

LUM (UniProt P51884)
inactive: [1] 0.076 | volasertib 0.225 | [2] -0.269 | epoxomicin -0.145 | [3] -0.167 | [4] 0.054

LUC7L (UniProt Q9NQ29)
inactive: [1] 0.006 | volasertib -0.005 | [2] 0.005 | epoxomicin -0.052 | [5] 0.01 | [3] -0.043 | [4] 0.108 | [6] 0.052

MAP2K1 (UniProt Q02750)
inactive: [1] -0.017 | volasertib -0.058 | [2] 0.024 | epoxomicin 0.053 | [5] -0.092 | [3] 0.032 | [4] -0.06 | [6] -0.113

LSM5 (UniProt Q9Y4Y9)
inactive: [1] -0.03 | [2] -0.179 | epoxomicin 0.086 | [7] 0.044 | [5] -0.448 | rosiglitazone 0.044 | [6] 0.054

LRRFIP1 (UniProt Q32MZ4)
inactive: [1] 0.06 | volasertib 0.099 | [2] -0.075 | epoxomicin -0.019 | [5] 0.028 | [3] -0.004 | [4] 0.011 | [6] 0.013

MAGEC2 (UniProt Q9UBF1)
inactive: [1] -0.017 | volasertib -0.146 | [2] 0.028 | epoxomicin -0.062 | [5] -0.048 | [3] -0.007 | [4] -0.063 | [6] 0

MAFF (UniProt Q9ULX9)
inactive: [1] 0.099 | [2] -0.007 | [5] 0.118 | [3] -0.171 | rosiglitazone 0.067 | [4] 0.014 | [6] 0.12

MARCKS (UniProt P29966)
inactive: [1] 0.035 | volasertib -0.027 | [2] -0.091 | epoxomicin -0.044 | [3] -0.043 | [4] -0.014 | [6] 0.089
active: [5] 0.268

MAN2B2 (UniProt Q9Y2E5)
active: [1] -0.445 | volasertib -0.704
inactive: [2] -0.005 | epoxomicin -0.002 | [3] -0.019 | [4] 0.013

MAGEA8 (UniProt P43361)
inactive: [1] -0.096 | volasertib -0.386 | [2] -0.075 | [5] 0.252 | [3] -0.003 | [4] 0.038 | [6] -0.07

3 successive entries already listed:
MAGEC2 (UniProt Q9UBF1)
inactive: [1] -0.017 | volasertib -0.146 | [2] 0.028 | epoxomicin -0.062 | [5] -0.048 | [3] -0.007 | [4] -0.063 | [6] 0

MAFF (UniProt Q9ULX9)
inactive: [1] 0.099 | [2] -0.007 | [5] 0.118 | [3] -0.171 | rosiglitazone 0.067 | [4] 0.014 | [6] 0.12

MARCKS (UniProt P29966)
inactive: [1] 0.035 | volasertib -0.027 | [2] -0.091 | epoxomicin -0.044 | [3] -0.043 | [4] -0.014 | [6] 0.089
active: [5] 0.268

The list goes on:

MAGEB10 (UniProt Q96LZ2)
inactive: [1] -0.074 | [2] 0.101 | [3] -0.08 | [4] 0.519

LSR (UniProt M0QZL9)
inactive: epoxomicin 0.076 | [3] -0.125

MAGEA1 (UniProt P43355)
inactive: volasertib -0.45 | [2] 0.094 | epoxomicin 0.174 | [7] -0.046 | [5] 0.127 | rosiglitazone 0.039 | [6] -0.008

MAPRE3 isoform 2 (UniProt Q9UPY8)
inactive: volasertib 0.165 | [2] 0.04

LYPLA1, A0A087X1K9
inactive: [4] -0.409

MAFG (UniProt O15525)
inactive: epoxomicin 0.099 | [5] 0.024 | [3] -0.125 | [6] 0.083

MAP3K20 isoform 2 (UniProt Q9NYL2)
inactive: volasertib -0.1 | [2] -0.067 | epoxomicin -0.03

MAP2K5 (UniProt Q13163)
inactive: [4] 0.457

LSM14A, A0A140TA76
inactive: [3] -0.136

MANSC1 (UniProt Q9H8J5)
inactive: [2] 0.162

LRRCC1 (UniProt Q9C099)
inactive: [4] 0.281

MAML2 (UniProt Q8IZL2)
inactive: [7] -0.062

MAPKAP1 (UniProt Q9BPZ7)
inactive: epoxomicin 0.372 | [5] -0.114 | [6] -0.12

MAD1L1 (UniProt Q9Y6D9)
inactive: volasertib -0.167 | epoxomicin 0.267 | [7] -0.003 | [5] -0.126 | [3] 0.237 | rosiglitazone 0.257 | [6] -0.061

MAGED1 isoform 2 (UniProt Q9Y5V3)
inactive: volasertib -0.306 | [2] -0.01 | epoxomicin -0.053 | [3] 0.012 | [4] 0.399

LSR isoform 3 (UniProt Q86X29)
inactive: volasertib -0.096 | [4] 0.047

LYN isoform 2 (UniProt P07948)
inactive: volasertib -0.003 | [2] 0.036 | epoxomicin 0.246 | [3] 0.007

MAML1 (UniProt Q92585)
inactive: epoxomicin 0.059 | [3] -0.055

LSM10 (UniProt Q969L4)
inactive: volasertib -0.025 | [2] 0.105 | [7] -0.176 | rosiglitazone -0.375 | [4] -0.533

LYST (UniProt Q99698)
inactive: [2] -0.297 | epoxomicin -0.217 | [5] 0.143 | [3] -0.187 | rosiglitazone 0.072 | [4] 0.056 | [6] -0.426

LTBP1 isoform 4 (UniProt Q14766)
inactive: volasertib -0.02 | [2] -0.081 | epoxomicin 0.133 | [7] 0.045 | [5] 0.065 | [3] -0.153 | rosiglitazone 0.108 | [4] 0.152 | [6] 0.358

LRRC8E (UniProt Q6NSJ5)
inactive: volasertib -0.048 | epoxomicin -0.009 | [7] -0.113 | [5] -0.161 | [3] -0.057 | rosiglitazone -0.078 | [4] -0.023 | [6] -0.006

LUZP1 (UniProt Q86V48)
inactive: volasertib -0.021 | [2] -0.026 | epoxomicin -0.22 | [5] 0.026 | [3] 0.035 | [4] 0.026 | [6] -0.039

MAPT isoform 9 (UniProt P10636)
inactive: volasertib 0 | epoxomicin -0.094 | [7] 0.063 | [3] -0.081 | rosiglitazone 0.017

MAPK7 (UniProt Q13164)
inactive: epoxomicin 0.093 | [5] -0.049 | [6] -0.125

MAN2B1 (UniProt M0QYZ1)
inactive: volasertib -0.06 | epoxomicin -0.194

MAP4K3 (UniProt Q8IVH8)
inactive: [1] -0.035 | [7] 0.038 | [3] -0.315 | rosiglitazone 1.05

LRRFIP1 isoform 4 (UniProt Q32MZ4)
inactive: epoxomicin -0.113 | [5] 0.212 | [4] 0.105 | [6] 0.349

MAP3K10 (UniProt Q02779)
inactive: volasertib 0.075 | [5] -0.015 | [3] 0.059 | rosiglitazone 0.033 | [6] 0.081

MAGI3 isoform 1 (UniProt Q5TCQ9)
inactive: [1] 0.092 | epoxomicin -0.029 | [3] 0.006 | rosiglitazone -0.193 | [4] 0.205

LRRC8B (UniProt Q6P9F7)
inactive: volasertib 0.304 | [2] 0.029 | epoxomicin 0.005 | [7] -0.041 | rosiglitazone 0.024 | [4] -0.002

MAP4K5 (UniProt Q9Y4K4)
inactive: volasertib -0.135 | [2] -0.004 | epoxomicin -0.014 | [5] -0.126 | [3] -0.026 | [6] 0.051

LSM11 (UniProt P83369)
inactive: [5] 0.031 | [6] 0.013

MAPK11 (UniProt Q15759)
inactive: [5] 0.025 | [6] -0.263

— the supplement of paper PMC10849652
